Results from PMC12070812.

Chains of the proteins cited; added tags and fusions are not shown. Lines headed by an entry give the natural chain unless they say otherwise; changes in a name come on top.
UniProt Q9VUH8: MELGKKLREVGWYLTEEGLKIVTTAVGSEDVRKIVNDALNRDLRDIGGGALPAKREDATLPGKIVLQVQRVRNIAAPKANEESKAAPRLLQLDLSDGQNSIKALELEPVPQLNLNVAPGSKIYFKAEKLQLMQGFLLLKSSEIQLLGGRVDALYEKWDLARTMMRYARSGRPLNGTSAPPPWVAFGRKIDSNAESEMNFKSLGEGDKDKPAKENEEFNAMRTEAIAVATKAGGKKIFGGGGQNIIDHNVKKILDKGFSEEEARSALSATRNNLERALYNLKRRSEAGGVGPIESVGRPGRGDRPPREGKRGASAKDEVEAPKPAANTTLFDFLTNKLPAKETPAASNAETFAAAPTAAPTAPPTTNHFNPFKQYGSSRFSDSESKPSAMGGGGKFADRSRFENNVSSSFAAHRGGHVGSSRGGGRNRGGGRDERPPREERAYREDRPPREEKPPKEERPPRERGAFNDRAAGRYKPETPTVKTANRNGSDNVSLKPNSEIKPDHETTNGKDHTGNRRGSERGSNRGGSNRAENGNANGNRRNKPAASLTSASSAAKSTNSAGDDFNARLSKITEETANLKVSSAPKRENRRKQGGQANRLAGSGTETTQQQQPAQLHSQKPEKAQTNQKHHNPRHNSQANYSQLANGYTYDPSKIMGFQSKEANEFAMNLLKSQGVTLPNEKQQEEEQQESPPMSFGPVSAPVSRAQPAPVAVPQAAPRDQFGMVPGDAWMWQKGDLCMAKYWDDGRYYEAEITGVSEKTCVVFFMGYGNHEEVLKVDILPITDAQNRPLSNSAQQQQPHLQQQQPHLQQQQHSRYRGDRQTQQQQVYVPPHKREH

Target: TDRD3 (Drosophila) (Drosophila (endogenous in fly ovaries and OSS cells)) (UniProt Q9VUH8)
Test: co-IP; reciprocal TDRD3 and Piwi IP from OSS cell lysates (Ripa buffer); IP buffer 20mM Hepes pH 7.9, 200mM NaCl, 0.1% NP40, 4 hours at 4 C; Western blot of the eluates

- binding: binds
B1: Piwi (protein, UniProt Q9VKM1 1-843)
chain: MADDQGRGRRRPLNEDDSSTSRGSGDGPRVKVFRGSSSGDPRADPRIEASRERRALEEAPRREGGPTERKPWGDQYDYLNTRPAELVSKKGTDGVPVMLQTNFFRLKTKPEWRIVHYHVEFEPSIENPRVRMGVLSNHANLLGSGYLFDGLQLFTTRKFEQEITVLSGKSKLDIEYKISIKFVGFISCAEPRFLQVLNLILRRSMKGLNLELVGRNLFDPRAKIEIREFKMELWPGYETSIRQHEKDILLGTEITHKVMRTETIYDIMRRCSHNPARHQDEVRVNVLDLIVLTDYNNRTYRINDVDFGQTPKSTFSCKGRDISFVEYYLTKYNIRIRDHNQPLLISKNRDKALKTNASELVVLIPELCRVTGLNAEMRSNFQLMRAMSSYTRMNPKQRTDRLRAFNHRLQNTPESVKVLRDWNMELDKNVTEVQGRIIGQQNIVFHNGKVPAGENADWQRHFRDQRMLTTPSDGLDRWAVIAPQRNSHELRTLLDSLYRAASGMGLRIRSPQEFIIYDDRTGTYVRAMDDCVRSDPKLILCLVPNDNAERYSSIKKRGYVDRAVPTQVVTLKTTKNRSLMSIATKIAIQLNCKLGYTPWMIELPLSGLMTIGFDIAKSTRDRKRAYGALIASMDLQQNSTYFSTVTECSAFDVLANTLWPMIAKALRQYQHEHRKLPSRIVFYRDGVSSGSLKQLFEFEVKDIIEKLKTEYARVQLSPPQLAYIVVTRSMNTRFFLNGQNPPPGTIVDDVITLPERYDFYLVSQQVRQGTVSPTSYNVLYSSMGLSPEKMQKLTYKMCHLYYNWSGTTRVPAVCQYAKKLATLVGTNLHSIPQNALEKKFYYL

- binding: binds
B2: SpnE (protein, UniProt Q9VF26 1-1434)
chain: MDQEVMDFFDFSKELKRVAAAPQGYISSDPRLMATKFKSSEVPNRELIGTDYVSKIVAKEKCLLNGTLLNEQPQGKRIRTLDDLDTDDEGEETEIRRDDEYYKKFRFNLNRDKNLSIYAKREEILAAINAHPVVIIKGETGCGKTTQVPQYILDEAYKSGKYCNIVVTQPRRIAAISIANRVCQEREWQQNTVCSFQVGLHRPNSLEDTRLLYCTTGVLLNNLINNKTLTHYTHIVLDEVHERDQNMDFLLIVVRRLLATNSRHVKIILMSATIDAKELSDYFTTTNSIPPVITTNHRRKHSIEKFYRDQLGSIIWNEEDVGHQQVPEINKHGYRAAVKIIVIIDNMERKAAIQSRQSYDEALRYGAVLIFLPGIYEIDTMAENLTCMLENDPNIKVSIVRCFSLMTPENQRDVFNPPPPGFRKIILTTNIAESSITVPDVSYVIDFCLAKVKVTDTASSFSSLRLTWASKANCRQRAGRVGRLRSGRVYRMVNKHFYQREMPEFGIPEMLRLPLQNSVLKAKVLNMGSPVEILALALSPPNLSDIHNTILLLKEVGALYLTVDGIYDPLDGDLTYWGTIMSRLPLDTRQSRLIILGYIFNMLEEAIIIAAGLSTPGLFAHEGGRSQLGDSFWMHYIFSDGSGSDLVAIWRVYLTYLNIVENGHDQESAIRWAKRFHVSLRSLKEIHLLVQELRVRCTHLGLIPFPVNPNQMMDDREKAIMLKVIIAGAFYPNYFTRSKESCADTDRNIYQTISGHDPCRTVYFTNFKPAYMGELYTRRIKELFQEVRIPPENMDVTFQEGSQKVFVTFKQDDWIEGSSKYVPVSGRVQSEVYKAVMMRQNRVERPIHIMNPSAFMSYVQQRGIGDVIEGRWIPPTKPLNVELLALPSVFDKTISGSITCIVNCGKFFFQPQSFEECIRNMSEIFNAPQQLRNYVTNASAIAKGMMVLAKRDSYFQRATVIRPENQSNRQPMFYVRFIDYGNCTLLPMQLMRLMPRELTEQYGDLPPRVFECRLAMVQPSSVVSGNNRWSTAANDMLKTVAQCGLIDIEVYSLFNNVAAVLIHMRDGIINDKLVELMLCRRSDEDYMSRKDHDFRLRRQESARNLSTAQRQQINEEYLRSCQLPQDHDLPPPPLEKCKTVVMLKGPNSPLECTMRSITRVGLSKRVNIDHLSVNALLLDADPQDHHDHLIVAHEIAESRNGQTLTARGTTLMPNVQGFGALMVMLFSPTMQLKCNKEGTSYVSVLGGLGCDPDTNEPYFAEHDVLINLDVNILEDDVILINQIRYYIDSVFFNFKEENNPAVSVNERVSIYTQLRSLINRLLCKDRRYIERNMSNADFEWETNPELPLPNEPFGKRAIFPMHSLTELQEEDTGRLVQLRENCSMLHKWRNFEGTLPHMTCKLCNQLLESVPQLRLHLLTILHRDREKQIDYCNQ

These are yes or no findings as the source states them, for the method shown. In cells and extracts the contact can be indirect. Binding calls can cover weak binding; strength is not graded here. One block for each binder: values may come before it.
